Assay results from PubChem BioAssay AID1487 (National Center for Advancing Translational Sciences (NCATS), 2009).
Some of the results follow. Further columns of the screen follow, without active or inactive calls. Most of these compounds were active or inconclusive in the main read-out, so they are no random draw. Words in brackets tell the shape of the fitted curve; partial curves, single points and poor fits give uncertain potencies.

Experiment: qHTS Assay for Modulators of Lamin A Splicing
Conditions: HeLa LMNA splicing GFP/RFP minigene ratio, 48 h
Procedure, shortened: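 Read-out is the ratio of GFP to DsRed2 object intensity, acquired by 488 nm laser-scanning cytometry on HeLa lamin A-EGFP minigene reporter cells. Compound incubation 48 hrs at 37 °C in Opti-MEM with 2% FBS; DMSO 0.5% final.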

[1] = measured here: RFP viability control channel
[2] = measured here: GFP splicing reporter channel

| SMILES | AC50 [1] | AC50 [2] |
| --- | --- | --- |
| COc1ccc(NC(=O)CSCc2cc(=O)c3cc(Cl)ccc3[nH]2)cc1 | 0.501 µM [rising, partial curve, poor fit] |  |
| Cn1c(N2CCOCC2)nc2c1c(=O)n(Cc1ccc(Cl)c(Cl)c1)c(=O)n2C | 14.1 µM [rising, single point] |  |
| CCOc1ccccc1NC(=O)CSc1nnc(-c2ccco2)n1Cc1ccco1 |  | 15.8 µM [rising, single point] |
| O=C(CCN1Cc2ccccc2C1)c1ccc2c(c1)OCCO2 | 2 µM [falling, partial curve, poor fit] | 12.6 µM [rising, single point] |
| COC(=O)C1=C(C(=O)OC)[C@@H]2N(Cc3ccccc3)c3ccccc3[C@@]23C[C@@H](C(=O)OC)N(C(=O)CC(C)C)C3=N1 | 0.0794 µM [falling, full curve, poor fit] |  |
| CN(Cc1ccc(-n2cccn2)cc1)C(=O)c1cnn2c1NC(c1ccco1)CC2C(F)(F)F (centres undefined) | 22.4 µM [rising, single point] |  |
| O=[N+]([O-])c1cc(/C=N/N/C(=N/c2ccccn2)c2ccccn2)ccc1O | 7.08 µM [rising, partial curve] |  |
| O=S(=O)(Nc1ccc(N2CCCCC2)cc1)c1cccs1 | 12.6 µM [rising, single point] | 10 µM [rising, partial curve] |
| Cc1c(NS(=O)(=O)c2ccc3c(c2)OCCO3)cccc1-c1nc2cccnc2s1 | 3.16 µM [rising, full curve] | 1.58 µM [rising, full curve, poor fit] |
| CCOC(=O)C1C(=O)C=C(c2ccc(OC)cc2)CC1c1ccco1 (centres undefined) | 17.8 µM [rising, partial curve, poor fit] |  |
| CCOc1ccc(S(=O)(=O)NCc2cccn2Cc2cccc(C)c2)cc1 | 10 µM [rising, partial curve, poor fit] |  |
| CCOC(=O)c1cc(-c2ccccc2)n(-c2cccc(C(=O)NC(C)(C)C)c2)c1C | 8.91 µM [falling, partial curve, poor fit] |  |
| CCOc1ccc(NS(=O)(=O)c2cnc(Cl)c(Cl)c2)cc1 | 35.5 µM [rising, single point] | 35.5 µM [rising, single point] |
| COc1cc(NC(=O)c2cccc(COCC(F)(F)C(F)F)c2)cc(OC)c1OC | 11.2 µM [rising, partial curve, poor fit] |  |
| COc1cccc(Cn2c(=O)c(-c3cccs3)nc3cncnc32)c1 |  | 12.6 µM [falling, partial curve] |
| COc1cc2c(cc1OC)C(c1cc(OC)c(OC)c(OC)c1)NCC2 (centres undefined) | 0.0501 µM [falling, full curve, poor fit] | 0.0224 µM [falling, full curve, poor fit] |
| c1nc(N2CCOCC2)c2cc(-c3ccoc3)ccc2n1 | 4.47 µM [falling, partial curve, poor fit] | 17.8 µM [falling, partial curve, poor fit] |
| CCN1CCc2c(sc(-n3cccc3)c2C(CCC(C)C)NC(=O)NCCC(=O)OC)C1 (centres undefined) | 11.2 µM [rising, partial curve] | 35.5 µM [rising, single point] |
| COc1ccc(-n2cc(-c3ccccc3)c3c(N4CCOCC4)ncnc32)cc1 | 25.1 µM [falling, single point] | 8.91 µM [falling, partial curve] |
| Cc1ccc(/C=C/C(=O)OCC(=O)Nc2ccccc2Sc2ccccc2)cc1 | 0.00316 µM [falling, full curve, poor fit] |  |
| CCn1c(CSc2nc3ccccc3s2)nnc1SCC(=O)c1ccc2c(c1)OCCO2 | 2.82 µM [falling, partial curve, poor fit] |  |
| OC(CNCc1ccco1)Cn1c2ccccc2c2ccccc21 (centres undefined) | 0.0112 µM [rising, full curve, poor fit] |  |
| COc1cc2c(cc1OC)CN(C(=S)Nc1ccc(OC(F)F)cc1)CC2 | 35.5 µM [falling, single point] |  |
| CC1(C)NC(=O)N(CCCOc2ccc3c(c2)CCC3)C1=O | 35.5 µM [rising, single point] | 15.8 µM [rising, single point] |
| COc1ccc(CNc2ncnc3ccc(-c4c(C)noc4C)cc23)c(OC)c1 |  | 2.82 µM [falling, full curve] |
| CN(c1ccccc1)S(=O)(=O)c1cccc(NC(=O)Cc2c(F)cccc2Cl)c1 | 15.8 µM [rising, partial curve] | 8.91 µM [rising, partial curve, poor fit] |
| COC(=O)CN=Cc1c(C)[nH]n(-c2ccccc2)c1=O | 0.112 µM [falling, partial curve, poor fit] |  |
| COc1ccc(CNc2ncnc3ccc(-c4cccc(C#N)c4)cc23)c(OC)c1 |  | 7.94 µM [falling, partial curve] |

| SMILES | AC50 [1] | AC50 [2] |
| --- | --- | --- |
| COc1ccc2c(c1)SCC/C2=C\CN1C(=O)CCC1=O |  | 11.2 µM [rising, single point] |
| COc1ccc(/C=C/c2c([N+](=O)[O-])c(=O)n(C)c(=O)n2C)cc1O | 31.6 µM [rising, single point] |  |
| CCC(C)NS(=O)(=O)c1ccc(OCC(=O)N2CCC(C)CC2)cc1 (centres undefined) | 31.6 µM [rising, single point] |  |
| Cc1nn(C(=O)/C(C#N)=C/N(C)C)c(C)c1C | 0.501 µM [rising, full curve, poor fit] |  |
| CCOC(CCn1c(SCc2ccc([N+](=O)[O-])cc2)nc2ccccc2c1=O)OCC | 35.5 µM [rising, single point] | 31.6 µM [rising, single point] |
| N#Cc1cc(-c2ccccc2)nc(Oc2ccc(Cl)cc2)n1 | 11.2 µM [rising, partial curve] | 3.98 µM [rising, full curve] |
| Cc1ccc(NC(=O)CSc2nc(C3CCCC3)nc3c2c(=O)n(C)c(=O)n3C)c(C)c1 | 0.708 µM [rising, full curve, poor fit] | 0.355 µM [rising, full curve] |
| Cc1cccc(NC(c2ccc(C)s2)c2ccc3ccc(C)nc3c2O)n1 (centres undefined) | 31.6 µM [rising, single point] |  |
| CCCNC(=O)c1ccc(C2SCC(=O)N2CCc2ccccc2)cc1 (centres undefined) | 14.1 µM [rising, partial curve] | 10 µM [rising, partial curve] |
| Cc1cccc(N2CCN(C(=O)Cc3ccc(Br)cc3)CC2)c1C | 20 µM [rising, single point] | 6.31 µM [rising, partial curve, poor fit] |
| COC(=O)c1ccc2nc(NC(=O)C3CCCCC3)sc2c1 |  | 0.0316 µM [falling, full curve] |
| COc1ccc2c(c1)CC(NC(=O)Nc1ccc(Br)c(C)c1)CO2 (centres undefined) | 0.501 µM [rising, full curve, poor fit] |  |
| O=C(NC(=S)Nc1ccc(N2CCCCC2)cc1)c1cccs1 | 14.1 µM [rising, single point] |  |
| Cc1ccc(-c2cc(C(=O)Nc3ccc(S(=O)(=O)Nc4nc(C)cc(C)n4)cc3)c3ccccc3n2)cc1 | 22.4 µM [rising, single point] | 15.8 µM [rising, partial curve] |
| CC(C)(C)c1nnc(N/N=C/c2ccccc2O)n(N)c1=O | 6.31 µM [rising, partial curve] |  |
| Cc1ccc(-c2nc(Cn3c(SCc4ccc(F)cc4)nc4cccnc43)c(C)o2)cc1 |  | 22.4 µM [falling, partial curve, poor fit] |
| O=C(Nc1nnc(-c2cccs2)o1)c1cccc(C(F)(F)F)c1 | 7.94 µM [rising, partial curve] |  |
| CCOC(=O)N1CCc2c(sc(NCc3cccc(F)c3)c2C(=O)Nc2ccc(OCC)cc2)C1 |  | 0.0126 µM [rising, full curve, poor fit] |
| COc1cccc(-c2csc(N3CCN(CC(=O)Nc4ccc5c(c4)OCO5)CC3)n2)c1 | 15.8 µM [rising, single point] |  |
| COc1ccc(S(=O)(=O)N2CCC(O)(c3ccc4c(c3)OCO4)CC2)cc1 | 10 µM [rising, partial curve] | 14.1 µM [rising, single point] |
| O=C(O)c1ccccc1COc1ccccc1Cl |  | 35.5 µM [falling, single point] |
| [S-]C(=Nc1ccc(Cl)cc1)N[n+]1ccccc1 | 0.0891 µM [falling, full curve, poor fit] |  |
| CCC(C(=O)OCn1nnc2ccccc2c1=O)c1ccccc1 (centres undefined) | 1.41 µM [falling, partial curve] |  |
| CCn1c(SCc2nc(-c3cccs3)no2)nnc1-c1c[nH]c2ccccc12 | 31.6 µM [rising, single point] |  |
| Cc1ccc(S(=O)(=O)NCC(=O)OCC(=O)c2cc(C)n(-c3ccccc3)c2C)cc1 | 8.91 µM [falling, partial curve, poor fit] |  |
| CC1(C)C2CC=C(/C=N/NC(=O)c3ccc(Cl)cc3)C1C2 (centres undefined) | 15.8 µM [rising, partial curve] | 10 µM [rising, partial curve] |
| COCCn1c(C)cc(C(=O)CSc2nc3ccccc3c(=O)n2Cc2ccco2)c1C | 0.0794 µM [rising, full curve, poor fit] | 0.891 µM [rising, full curve, poor fit] |

Exported bar-delimited: 14 of the compounds above.
SMILES | AC50 [1] | AC50 [2]
COc1ccc(/C=C/c2c([N+](=O)[O-])c(=O)n(C)c(=O)n2C)cc1O | 31.6 µM [rising, single point] | 
CCC(C)NS(=O)(=O)c1ccc(OCC(=O)N2CCC(C)CC2)cc1 (centres undefined) | 31.6 µM [rising, single point] | 
CCOC(CCn1c(SCc2ccc([N+](=O)[O-])cc2)nc2ccccc2c1=O)OCC | 35.5 µM [rising, single point] | 31.6 µM [rising, single point]
N#Cc1cc(-c2ccccc2)nc(Oc2ccc(Cl)cc2)n1 | 11.2 µM [rising, partial curve] | 3.98 µM [rising, full curve]
Cc1ccc(NC(=O)CSc2nc(C3CCCC3)nc3c2c(=O)n(C)c(=O)n3C)c(C)c1 | 0.708 µM [rising, full curve, poor fit] | 0.355 µM [rising, full curve]
Cc1cccc(NC(c2ccc(C)s2)c2ccc3ccc(C)nc3c2O)n1 (centres undefined) | 31.6 µM [rising, single point] | 
CCCNC(=O)c1ccc(C2SCC(=O)N2CCc2ccccc2)cc1 (centres undefined) | 14.1 µM [rising, partial curve] | 10 µM [rising, partial curve]
Cc1cccc(N2CCN(C(=O)Cc3ccc(Br)cc3)CC2)c1C | 20 µM [rising, single point] | 6.31 µM [rising, partial curve, poor fit]
COC(=O)c1ccc2nc(NC(=O)C3CCCCC3)sc2c1 |  | 0.0316 µM [falling, full curve]
CC(C)(C)c1nnc(N/N=C/c2ccccc2O)n(N)c1=O | 6.31 µM [rising, partial curve] | 
COc1cccc(-c2csc(N3CCN(CC(=O)Nc4ccc5c(c4)OCO5)CC3)n2)c1 | 15.8 µM [rising, single point] | 
COc1ccc(S(=O)(=O)N2CCC(O)(c3ccc4c(c3)OCO4)CC2)cc1 | 10 µM [rising, partial curve] | 14.1 µM [rising, single point]
O=C(O)c1ccccc1COc1ccccc1Cl |  | 35.5 µM [falling, single point]
CCC(C(=O)OCn1nnc2ccccc2c1=O)c1ccccc1 (centres undefined) | 1.41 µM [falling, partial curve] | 
